From US20240218022A1, “ANTI-VISTA MACROCYCLIC PEPTIDES AND COMPOSITIONS” (BRISTOL-MYERS SQUIBB COMPANY, priority 2022, published 2024)
Read-outs that look alike come from different tables or passages of the source. For at least one compound, name, drawing or mass did not settle the structure. Starred links: 1 amine or outer side, 2 acyl side, 3 side chain; linkers in the order of their positions; H or OH if unused. Positions of bridges follow the written chain, without caps; N, C: chain ends. Non-standard residues stand in square brackets, D forms with d. Residues, ends and D or L forms follow the SMILES beside them. ξ: configuration not given here. Phe(2,4-F2) = N[C@@H](Cc1ccc(F)cc1F)C(=O)O; Phe(3-Me) = Cc1cccc(C[C@H](N)C(=O)O)c1; γGlu = O=C(O)[C@H](CCC(=O)[*:2])N[*:1]; 2Nal = N[C@@H](Cc1ccc2ccccc2c1)C(=O)O; βAsp = O=C(O)[C@H](CC(=O)[*:2])N[*:1]; Ahp(2) = CCCCC[C@H](N)C(=O)O; NMeNle = CCCC[C@H](NC)C(=O)O; Tle = CC(C)(C)[C@H](N)C(=O)O; NHexGly = CCCCCCNCC(=O)O; Nle = CCCC[C@H](N)C(=O)O; Aun = NCCCCCCCCCCC(=O)O; AEEA = NCCOCCOCC(=O)O; ξP = O=C(O)C1CCCN1

Target: T1, mouse VISTA (mVISTA) (Mus musculus, UniProt Q9D659)
T1 construct: expressed in transfected cells; host or cells: Human embryonic kidney 293T cells
T1 sequence (Q9D659 33-308): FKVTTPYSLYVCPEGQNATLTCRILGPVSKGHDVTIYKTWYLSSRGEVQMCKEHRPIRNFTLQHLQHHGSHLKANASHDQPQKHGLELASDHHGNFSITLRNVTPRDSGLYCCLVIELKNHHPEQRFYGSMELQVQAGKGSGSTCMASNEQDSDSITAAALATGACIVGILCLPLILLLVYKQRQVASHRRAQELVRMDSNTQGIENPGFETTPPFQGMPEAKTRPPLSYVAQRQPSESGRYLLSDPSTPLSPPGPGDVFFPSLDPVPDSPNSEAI
Experiment: Cell-Based Binding High-Content Assay For mVISTA (HC CBA mVISTA)
Outline: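 mVISTA-293T, 4,000 cells/well; cpd ± washout step; biotin-peptide 2 nM final, 30 min RT; SA-Alexa 647 30 min; formaldehyde/Hoechst fix; HCS imaging; 4PL IC50.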

[1] = cell-based binding high-content assay, read-out: HC CBA miPrISTA IC50

SMILES | IC50 (read-out: HC CBA mVISTA IC50) [nM] | other results
CCCCCCN1CC(=O)N[C@@H](Cc2ccc(O)cc2)C(=O)N[C@@H](CCCC)C(=O)N[C@@H](CC(N)=O)C(=O)N[C@@H](CCCNC(=N)N)C(=O)N(C)[C@@H](CCCC)C(=O)N[C@@H](CCCCC)C(=O)N2CCC[C@H]2C(=O)N[C@@H](C(C)(C)C)C(=O)N[C@@H](CO)C(=O)N[C@H](C(=O)NCC(=O)NCCOCCOCC(=O)N[C@@H](CCC(=O)NCCOCCOCC(=O)NCCCCCCCCCCC(=O)O)C(=O)O)CSCC(=O)N[C@@H](Cc2ccccc2)C(=O)N[C@@H](Cc2ccc(O)cc2)C(=O)N[C@@H](CC(=O)O)C1=O [compound 2331] ({CH2CO}-FYD[NHexGly]Y[Nle]NR[NMeNle][Ahp(2)]P[Tle]SCG[AEEA][γGlu][AEEA][Aun]-OH; thioether N-14) | – | IC50 (cell-based binding high-content assay, read-out: HC CBA mVISTA IC50): 13.7 nM
CCCCCCN1CC(=O)N[C@@H](Cc2ccc(O)cc2)C(=O)N[C@@H](CCCC)C(=O)N[C@@H](CC(N)=O)C(=O)N[C@@H](CCCNC(=N)N)C(=O)N(C)[C@@H](CCCC)C(=O)N[C@@H](CCCCC)C(=O)N2CCC[C@H]2C(=O)N[C@@H](C(C)C)C(=O)N[C@@H](CC(=O)O)C(=O)N[C@H](C(=O)NCC(=O)N[C@@H](CCC(=O)NCCOCCOCC(=O)N[C@@H](CC(=O)O)C(=O)NCCOCCOCC(=O)NCCCCCCCCCCC(=O)O)C(=O)O)CSCC(=O)N[C@@H](Cc2ccccc2)C(=O)N[C@@H](Cc2c[nH]c3ccccc23)C(=O)N[C@@H](CC(=O)O)C1=O [compound 2119] ({CH2CO}-FWD[NHexGly]Y[Nle]NR[NMeNle][Ahp(2)]PVDCG[γGlu][AEEA]D[AEEA][Aun]-OH; thioether N-14) | 19.6 | –
CCCCCCN1CC(=O)N[C@@H](Cc2ccc(O)cc2)C(=O)N[C@@H](CCCC)C(=O)N[C@@H](CC(N)=O)C(=O)N[C@@H](CCCNC(=N)N)C(=O)N[C@@H](CC(C)C)C(=O)N[C@@H](CCCCC)C(=O)N2CCC[C@@H]2C(=O)N[C@@H](C(C)C)C(=O)N[C@@H](CO)C(=O)N[C@H](C(=O)NCC(=O)N[C@@H](CC(=O)NCCOCCOCC(=O)N[C@@H](CC(=O)O)C(=O)NCCOCCOCC(=O)NCCCCCCCCCCC(=O)O)C(=O)O)CSCC(=O)N[C@@H](Cc2ccc3ccccc3c2)C(=O)N[C@@H](Cc2ccc(O)cc2)C(=O)N[C@@H](CC(=O)O)C1=O [compound 2110] ({CH2CO}-[2Nal]YD[NHexGly]Y[Nle]NRL[Ahp(2)][dP]VSCG[βAsp][AEEA]D[AEEA][Aun]-OH; thioether N-14) | 21.6 | –
CCCCCCN1CC(=O)N[C@@H](Cc2ccc(O)cc2)C(=O)N[C@@H](CCCC)C(=O)N[C@@H](CC(=O)O)C(=O)N[C@@H](CCCNC(=N)N)C(=O)N[C@@H](CC(C)C)C(=O)N[C@@H](CCCCC)C(=O)N2CCC[C@H]2C(=O)N[C@@H](C(C)C)C(=O)N[C@@H](CC(N)=O)C(=O)N[C@H](C(=O)NCC(=O)N[C@@H](CCC(=O)NCCOCCOCC(=O)N[C@@H](CC(=O)O)C(=O)NCCOCCOCC(=O)NCCCCCCCCCCC(=O)O)C(=O)O)CSCC(=O)N[C@@H](Cc2ccccc2)C(=O)N[C@@H](Cc2ccc(O)cc2)C(=O)N[C@@H](CC(=O)O)C1=O [compound 2118] ({CH2CO}-FYD[NHexGly]Y[Nle]DRL[Ahp(2)]PVNCG[γGlu][AEEA]D[AEEA][Aun]-OH; thioether N-14) | 13.2 | –
CCCCCCN1CC(=O)N[C@@H](Cc2ccc(O)cc2)C(=O)N[C@@H](CCCCC)C(=O)N[C@@H](CC(N)=O)C(=O)N[C@@H](CCCNC(=N)N)C(=O)N(C)[C@@H](CCCC)C(=O)N[C@@H](CCCCC)C(=O)N2CCC[C@H]2C(=O)N[C@@H](C(C)C)C(=O)N[C@@H](CC(=O)O)C(=O)N[C@H](C(=O)NCC(=O)O)CSCC(=O)N[C@@H](Cc2ccccc2)C(=O)N[C@@H](Cc2ccc(F)cc2F)C(=O)N[C@@H](CC(=O)O)C1=O [compound 1350] ({CH2CO}-F[Phe(2,4-F2)]D[NHexGly]Y[Ahp(2)]NR[NMeNle][Ahp(2)]PVDCG-OH; thioether N-14) | 12.1 | –
CCCCCCN1CC(=O)N[C@@H](Cc2ccc(O)cc2)C(=O)N[C@@H](CCCC)C(=O)N[C@@H](CC(N)=O)C(=O)N[C@@H](CCCNC(=N)N)C(=O)N(C)[C@@H](CCCC)C(=O)N[C@@H](CCCCC)C(=O)N2CCC[C@H]2C(=O)N[C@@H](C(C)C)C(=O)N[C@@H](CC(=O)O)C(=O)N[C@H](C(=O)N[C@@H](CC(=O)NCCOCCOCC(=O)NCCCCCCCCCCC(=O)O)C(=O)O)CSCC(=O)N[C@@H](Cc2ccccc2)C(=O)N[C@@H](Cc2c[nH]c3ccccc23)C(=O)N[C@@H](CC(=O)O)C1=O [Example 2146] ({CH2CO}-FWD[NHexGly]Y[Nle]NR[NMeNle][Ahp(2)]PVDC[βAsp][AEEA][Aun]-OH; thioether N-14) | 12.7 | –
CCCCCCN1CC(=O)N[C@@H](Cc2ccc(O)cc2)C(=O)N[C@@H](CCCC)C(=O)N[C@@H](CC(N)=O)C(=O)N[C@@H](CCCNC(=N)N)C(=O)N(C)[C@@H](CCCC)C(=O)N[C@@H](CCCCC)C(=O)N2CCCC2C(=O)N[C@@H](C(C)C)C(=O)N[C@@H](CO)C(=O)N[C@H](C(=O)NCCOCCOCC(=O)N[C@@H](CC(=O)O)C(=O)NCCOCCOCC(=O)NCCCCCCCCCCC(=O)O)CSCC(=O)N[C@@H](Cc2ccc3ccccc3c2)C(=O)N[C@@H](Cc2ccc(O)cc2)C(=O)N[C@@H](CC(=O)O)C1=O (stereo partly shown) [compound 2320] ({CH2CO}-[2Nal]YD[NHexGly]Y[Nle]NR[NMeNle][Ahp(2)][ξP]VSC[AEEA]D[AEEA][Aun]-OH; thioether N-14) | – | IC50 [1]: 22.6 nM
CCCCCCN1CC(=O)N[C@@H](Cc2ccc(O)cc2)C(=O)N[C@@H](CCCC)C(=O)N[C@@H](CC(N)=O)C(=O)N[C@@H](CCCNC(=N)N)C(=O)N(C)[C@@H](CCCC)C(=O)N[C@@H](CCCCC)C(=O)N2CCCC2C(=O)N[C@@H](C(C)(C)C)C(=O)N[C@@H](CO)C(=O)N[C@H](C(=O)NCC(=O)N[C@@H](CC(=O)NCCOCCOCC(=O)N[C@@H](CC(=O)O)C(=O)NCCOCCOCC(=O)NCCCCCCCCCCC(=O)O)C(=O)O)CSCC(=O)N[C@@H](Cc2ccc3ccccc3c2)C(=O)N[C@@H](Cc2ccc(O)cc2)C(=O)N[C@@H](CC(=O)O)C1=O (stereo partly shown) [compound 2114] ({CH2CO}-[2Nal]YD[NHexGly]Y[Nle]NR[NMeNle][Ahp(2)][ξP][Tle]SCG[βAsp][AEEA]D[AEEA][Aun]-OH; thioether N-14) | 51 | –
CCCCCCN1CC(=O)N[C@@H](Cc2ccc(O)cc2)C(=O)N[C@@H](C(C)C)C(=O)NCC(=O)N[C@@H](CCCNC(=N)N)C(=O)N[C@@H](CC(C)C)C(=O)N[C@@H](CCCCC)C(=O)N2CCC[C@H]2C(=O)N[C@@H](C(C)C)C(=O)N[C@@H](CC(=O)O)C(=O)N[C@H](C(=O)NCCOCCOCC(=O)N[C@@H](CCC(=O)O)C(=O)NCCOCCOCC(=O)NCCCCCCCCCCC(=O)O)CSCC(=O)N[C@@H](Cc2ccc3ccccc3c2)C(=O)N[C@@H](Cc2ccc(O)cc2)C(=O)N[C@@H](CC(=O)O)C1=O [compound 2298] ({CH2CO}-[2Nal]YD[NHexGly]YVGRL[Ahp(2)]PVDC[AEEA]E[AEEA][Aun]-OH; thioether N-14) | – | IC50 [1]: 39.7 nM
CCCCCCN1CC(=O)N[C@@H](Cc2ccc(O)cc2)C(=O)N[C@@H](CCCC)C(=O)N[C@@H](CC(=O)O)C(=O)N[C@@H](CCCNC(=N)N)C(=O)N[C@@H](CC(C)C)C(=O)N[C@@H](CCCCC)C(=O)N2CCC[C@H]2C(=O)N[C@@H](C(C)C)C(=O)N[C@@H](CC(N)=O)C(=O)N[C@H](C(=O)NCCOCCOCC(=O)N[C@@H](CCC(=O)O)C(=O)NCCOCCOCC(=O)NCCCCCCCCCCC(=O)O)CSCC(=O)N[C@@H](Cc2ccccc2)C(=O)N[C@@H](Cc2ccc(O)cc2)C(=O)N[C@@H](CC(=O)O)C1=O [compound 2299] ({CH2CO}-FYD[NHexGly]Y[Nle]DRL[Ahp(2)]PVNC[AEEA]E[AEEA][Aun]-OH; thioether N-14) | – | IC50 [1]: 20.9 nM
CCCCCCN1CC(=O)N[C@@H](Cc2ccc(O)cc2)C(=O)N[C@@H](CCCC)C(=O)N[C@@H](CC(=O)O)C(=O)N[C@@H](CCCNC(=N)N)C(=O)N[C@@H](CC(C)C)C(=O)N[C@@H](CCCCC)C(=O)N2CCC[C@H]2C(=O)N[C@@H](C(C)C)C(=O)N[C@@H](CC(=O)O)C(=O)N[C@H](C(=O)N[C@@H](CC(=O)O)C(N)=O)CSCC(=O)N[C@@H](Cc2cccc(C)c2)C(=O)N[C@@H](Cc2ccc(O)cc2)C(=O)N[C@@H](CC(=O)O)C1=O [compound 1429] ({CH2CO}-[Phe(3-Me)]YD[NHexGly]Y[Nle]DRL[Ahp(2)]PVDCD-NH2; thioether N-14) | – | IC50 (the 19th table, scaffold drawing 22, read-out: HC CBA mVISTA IC50): 10.5 nM
CCCCCCN1CC(=O)N[C@@H](Cc2ccc(O)cc2)C(=O)N[C@@H](CC(C)C)C(=O)N[C@@H](CC(N)=O)C(=O)N[C@@H](CCCNC(=N)N)C(=O)N[C@@H](CC(C)C)C(=O)N[C@@H](CCCCC)C(=O)N2CCC[C@@H]2C(=O)N[C@@H](C(C)C)C(=O)N[C@@H](CO)C(=O)N[C@H](C(=O)NCC(=O)N[C@@H](CC(=O)O)C(=O)NCCOCCOCC(=O)N[C@@H](CC(=O)O)C(=O)NCCOCCOCC(=O)NCCCCCCCCCCC(=O)O)CSCC(=O)N[C@@H](Cc2ccccc2)C(=O)N[C@@H](Cc2ccc(O)cc2)C(=O)N[C@@H](CC(=O)O)C1=O [compound 2116] ({CH2CO}-FYD[NHexGly]YLNRL[Ahp(2)][dP]VSCGD[AEEA]D[AEEA][Aun]-OH; thioether N-14) | 40.7 | –
CCCCCCN1CC(=O)N[C@@H](Cc2ccc(O)cc2)C(=O)N[C@@H](CC(C)C)C(=O)N[C@H](CC(N)=O)C(=O)N[C@@H](CCCNC(=N)N)C(=O)N[C@@H](CC(C)C)C(=O)N[C@@H](CCCCC)C(=O)N2CCC[C@H]2C(=O)N[C@@H](C(C)C)C(=O)N[C@@H](C(C)C)C(=O)N[C@H](C(=O)N[C@@H](CO)C(=O)O)CSCC(=O)N[C@@H](Cc2ccc(F)cc2F)C(=O)N[C@@H](Cc2c[nH]c3ccccc23)C(=O)N[C@@H](CC(=O)O)C1=O [compound 1467] ({CH2CO}-[Phe(2,4-F2)]WD[NHexGly]YL[dN]RL[Ahp(2)]PVVCS-OH; thioether N-14) | – | IC50 (the 20th table, scaffold drawing 23, read-out: HC CBA mVISTA IC50): 16.9 nM
